Structures can show the parent of a compound that is named as a salt. The list shows a part of the results. Most values lie within the scatter of the assay; repeated measurements hardly agree.
Tested on: MDA-MB-468
Assay: phospho-S6 immunofluorescence (DAPI-normalised), per-plate z-score; higher = higher phospho-S6 signal (less pathway suppression)
Details: 24 h
Method: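 GPCR-targeted compound library (MedChemExpress HY-L006) tested on MDA-MB-468 PTEN-null TNBC cells in 384-well plates at 0.1, 1 or 10 uM, combined with vehicle, GDC0941 450 nM or lapatinib 1 uM, for 24 h. Phospho-S6 (S240/244) immunofluorescence normalised to DAPI and expressed as a per-plate z-score; values are the mean of biological triplicates.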

[1] = compound 0.1 µM, co-treatment: GDC0941 450 nM
[2] = compound 0.1 µM, co-treatment: lapatinib 1 uM
[3] = compound 0.1 µM, co-treatment: vehicle
[4] = compound 1 µM, co-treatment: GDC0941 450 nM
[5] = compound 1 µM, co-treatment: lapatinib 1 uM
[6] = compound 1 µM, co-treatment: vehicle
[7] = compound 10 µM, co-treatment: GDC0941 450 nM
[8] = compound 10 µM, co-treatment: lapatinib 1 uM
[9] = compound 10 µM, co-treatment: vehicle

CN(C)C(=O)N[C@H]1CC[C@H](CCN2CCN(c3cccc(Cl)c3Cl)CC2)CC1 [Cariprazine (hydrochloride)]
phospho-S6 immunofluorescence (z-score) [1]: 0.59
phospho-S6 immunofluorescence (z-score) [2]: 0.54
phospho-S6 immunofluorescence (z-score) [3]: 0.77
phospho-S6 immunofluorescence (z-score) [4]: 0.71
phospho-S6 immunofluorescence (z-score) [5]: 0.02
phospho-S6 immunofluorescence (z-score) [6]: 0.25

C[C@@](N)(C(=O)O)c1ccc(C(=O)O)cc1
phospho-S6 immunofluorescence (z-score) [1]: 0.82
phospho-S6 immunofluorescence (z-score) [2]: 0.37
phospho-S6 immunofluorescence (z-score) [3]: 0.17
phospho-S6 immunofluorescence (z-score) [4]: 0.63
phospho-S6 immunofluorescence (z-score) [5]: 0.25
phospho-S6 immunofluorescence (z-score) [6]: -0.17
phospho-S6 immunofluorescence (z-score) [7]: 0.93
phospho-S6 immunofluorescence (z-score) [8]: 1
phospho-S6 immunofluorescence (z-score) [9]: 0.17

OCC1OC(n2cnc3c(NC4CCCCC4)ncnc32)C(O)C1O (configuration not stated) [N6-Cyclohexyladenosine]
phospho-S6 immunofluorescence (z-score) [1]: 1.54
phospho-S6 immunofluorescence (z-score) [2]: 0.8
phospho-S6 immunofluorescence (z-score) [3]: 0.35
phospho-S6 immunofluorescence (z-score) [4]: 1.32
phospho-S6 immunofluorescence (z-score) [5]: 0.72
phospho-S6 immunofluorescence (z-score) [6]: 1.38
phospho-S6 immunofluorescence (z-score) [7]: -0.37
phospho-S6 immunofluorescence (z-score) [8]: 1.37
phospho-S6 immunofluorescence (z-score) [9]: 0.6

N=C(N)NCCC[C@@H](NC(=O)[C@@H]1CCCN1C(=O)[C@@H]1CSSCCC(=O)N[C@@H](Cc2ccc(O)cc2)C(=O)N[C@@H](Cc2ccccc2)C(=O)N[C@@H](CCC(N)=O)C(=O)N[C@@H](CC(N)=O)C(=O)N1)C(=O)NCC(N)=O [Desmopressin (Acetate)]
phospho-S6 immunofluorescence (z-score) [1]: -0.48
phospho-S6 immunofluorescence (z-score) [2]: -1.13
phospho-S6 immunofluorescence (z-score) [3]: -0.49
phospho-S6 immunofluorescence (z-score) [4]: 0.2
phospho-S6 immunofluorescence (z-score) [5]: -1.1
phospho-S6 immunofluorescence (z-score) [6]: -0.51
phospho-S6 immunofluorescence (z-score) [7]: 0.16
phospho-S6 immunofluorescence (z-score) [8]: -0.21
phospho-S6 immunofluorescence (z-score) [9]: -0.41

OC(CNCC(O)C1CCc2cc(F)ccc2O1)C1CCc2cc(F)ccc2O1 (configuration not stated) [Nebivolol (hydrochloride)]
phospho-S6 immunofluorescence (z-score) [1]: -0.98
phospho-S6 immunofluorescence (z-score) [2]: -1.23
phospho-S6 immunofluorescence (z-score) [3]: -0.74
phospho-S6 immunofluorescence (z-score) [4]: -0.53
phospho-S6 immunofluorescence (z-score) [5]: -1.32
phospho-S6 immunofluorescence (z-score) [6]: -0.19
phospho-S6 immunofluorescence (z-score) [7]: -2.5
phospho-S6 immunofluorescence (z-score) [8]: -3.76
phospho-S6 immunofluorescence (z-score) [9]: -2.22

From the supplement of paper PMC7411640
